This experiment has as its target T1, FAP45 (flagellar-associated protein 45) (Chlamydomonas (endogenous in axonemes)) (UniProt A8I9E8).
T1 sequence: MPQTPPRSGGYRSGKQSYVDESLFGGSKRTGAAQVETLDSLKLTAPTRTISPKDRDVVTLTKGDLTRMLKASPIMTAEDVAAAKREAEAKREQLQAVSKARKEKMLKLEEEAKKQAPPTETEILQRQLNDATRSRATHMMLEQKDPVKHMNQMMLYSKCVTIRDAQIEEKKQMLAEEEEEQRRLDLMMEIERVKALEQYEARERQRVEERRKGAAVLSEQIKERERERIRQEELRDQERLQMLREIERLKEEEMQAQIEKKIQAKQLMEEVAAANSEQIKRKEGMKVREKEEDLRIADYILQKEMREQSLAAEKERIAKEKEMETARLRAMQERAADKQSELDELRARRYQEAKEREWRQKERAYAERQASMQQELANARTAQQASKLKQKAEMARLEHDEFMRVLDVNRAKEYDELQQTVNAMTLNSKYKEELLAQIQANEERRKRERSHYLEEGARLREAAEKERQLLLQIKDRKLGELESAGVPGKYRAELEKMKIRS
As to the kind of experiment: cross-linking.

No constants are given. Whether binding was seen depends on the method and setting. Binding seen in cells or lysates may run through a third protein. Some results given as binding are weak or reduced against the parent protein; the word gives no strength. Sequences can lack the tags named with a protein.

B1: FAP52 (flagellar-associated protein 52) (natural protein, Chlamydomonas (endogenous in axonemes), UniProt A8ILK1 1-615, looked up)
chain: MAEPLVLNSVIGFGGAIENGLIAHPDGRTIIYPLGSTIVLRDRADPRSQEFLQGHSDKVSCLALSRSGRYLASGQITYMGFTADIIIWDLESKQLIHRMALHKVKVQALDFSCDERFLASLGGQDDNALVLWDVASGNAICGSPCNTNFTNCVKFFNNSPDKLITAGNFNMNVWTYDAGNNKLRPTDATLGTLKRVFKSVVVDANDEYAYCGTTTGDVLQIALERVLFKNTGPAKGNVQMGVTATCEVPTGDILVGGGDGSLQLLRKMPALAGTKVEGAITSIALADMNARGFTFFVGTAMCNIYKPATSRLKEELVQTAHNDKINGMAFPNEYSEVFATCGTGFIRLWHLTTCRELLRIAVPNLECFCIAFTTDGSAILSGWSDGKIRAFGPQSGKIIFTINDAHQKAVTAIASTADSSRILSGGEEGMVRVWRIGRTSQTLEASMKDHKGPVNCIRIKGSGDECVSASSDGSCILWDLHTFKRRTSLFANTFFKSVVYHPDESQLVTAGTDRKVTYWDAYDGNAIRIIDGSDLDEVNALAVDRDGEALVSGGGDKLVKLWGYDEGHCYFVGVAHSGAITAVGVTPDKQRIVSVGTEGGIFIWDYQRPQTLADI
Consider B1, for which the binding result is listed as “binds”.

Source of the values: paper doi:10.1101/383430 (bioRxiv, 2018).
